PubChem BioAssay AID1259425, University of Nebraska Medical Center | 2018

Screen: 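Compare each knockdown with KSR1 silencing using changes in marker transcripts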 (primary screen)
Cell system: HCT116 human colon cancer cells
Knock-down reagent: siRNA pool against human genes, 50 nM siRNA
Measured: 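mRNA of six signature genes measured together by branched-DNA assay after 50 nM siRNA pool, blank removed, divided by geometric mean of two housekeeping genes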
Reading the numbers: BNIP3L mRNA: higher = more BNIP3L transcript after knockdown; NDRG1 mRNA: higher = more NDRG1 transcript after knockdown; BNIP3 mRNA: higher = more BNIP3 transcript after knockdown; ALDOC mRNA: higher = more ALDOC transcript after knockdown; ACSL5 mRNA: higher = more ACSL5 transcript after knockdown
The whole screen tested about 14,000 reagents; below is a part drawn at random. A reagent listed more than once was tested more than once; the source does not tell the runs apart. Not stated in the record: the time to read-out.

gene	BNIP3L mRNA, set 1	NDRG1 mRNA, set 1	BNIP3 mRNA, set 1	ALDOC mRNA, set 1	ACSL5 mRNA, set 1
PREX1	0.121	0.379	0.358	0.019	0.148
NME2	0.059	0.14	0.339	0.00167	0.112
SMG7	0.048	0.179	0.244	0.0326	0.224
FGF22	0.143	0.992	0.254	0.018	0.301
HOXD9	0.115	0.158	0.189	0.0121	0.149
WDR13	0.287	0.797	0.308	0.041	0.321
ENPP5	0.113	0.231	0.407	0.0196	0.278
TMX1	0.128	0.291	0.258	0.026	0.327
TSSK4	0.0987	0.0877	0.268	0.0121	0.184
ATP6AP2	0.0828	0.129	0.295	0.0506	0.134
RACGAP1P1	0.354	0.721	0.411	0.0987	0.369
QRICH2	0.205	0.23	0.389	0.065	0.282
VN1R5	0.265	0.412	0.731	0.0803	0.155
PKP4	0.0524	0.14	0.282	0.00553	0.0884
SLC35E1	0.0933	0.244	0.362	0.115	0.186
QSOX1	0.0387	0.0768	0.231	0.0188	0.159
CNFN	0.202	0.345	0.0969	1	0.155
AP1AR	0.159	0.172	0.275	0.0141	0.133
ZNF473	0.117	0.227	0.415	0.0603	0.22
UFD1	0.14	0.279	0.312	0.0302	0.294
PTPN7	0.0984	0.306	0.353	0.0221	0.211
CTSH	0.0462	0.196	0.287	0.0217	0.277
B4GALT2	0.155	0.48	0.241	0.0562	0.259
SLC31A2	0.258	0.209	0.739	0.0541	0.161
GTF2H4	0.134	0.319	0.289	0.0161	0.214
ATP2C1	0.0828	0.338	0.285	0.0298	0.174
EXD3	0.108	0.121	0.286	0.026	0.124
CRYBB2	0.15	0.234	0.353	0.00937	0.244
EBNA1BP2	0.292	1.14	0.602	0.0298	0.37
SIN3B	0.065	0.708	0.282	0.00781	0.222
DOCK1	0.0714	0.0996	0.185	0.0258	0.212
ARAF	0.0614	0.227	0.252	0.00899	0.214
ACBD6	0.116	0.185	0.296	0.0406	0.0931
ZFYVE9	0.115	0.225	0.239	0.0489	0.142
ZFR2	0.147	0.246	0.282	0.0203	0.165
DDX31	0.0866	0.662	0.335	0.0223	0.129
TTR	0.106	0.105	0.269	0.0259	0.137
TENM4	0.0843	0.208	0.462	0.0437	0.123
H2AB3	0.0718	0.0732	0.2	0.0576	0.375
PRDM5	0.0566	0.106	0.26	0.0109	0.0984
TP53I11	0.152	0.175	0.302	0.0321	0.0467
STGC3 (retired record)	0.0444	0.213	0.381	0.0139	0.0751
IL10	0.0646	0.119	0.198	0.0105	0.0625
HAUS1	0.157	0.777	0.425	0.0681	0.358
CD72	0.0628	0.168	0.257	0.0173	0.195
NCKIPSD	0.063	0.27	0.192	0.0352	0.146
NCKIPSD	0.0564	0.143	0.191	0.00689	0.168
ABCC12	0.113	0.102	0.234	0.0304	0.106
PIDD1	0.363	0.304	0.955	0.179	0.156
ACMSD	0.163	0.469	0.311	0.0172	0.307

A stretch from the list above, as a working copy:
gene	BNIP3L mRNA, set 1	NDRG1 mRNA, set 1	BNIP3 mRNA, set 1	ALDOC mRNA, set 1	ACSL5 mRNA, set 1
CTSH	0.0462	0.196	0.287	0.0217	0.277
B4GALT2	0.155	0.48	0.241	0.0562	0.259
SLC31A2	0.258	0.209	0.739	0.0541	0.161
GTF2H4	0.134	0.319	0.289	0.0161	0.214
